This test has as its target HA-DDX3X (UniProt O00571). Description: co-IP.

By UniProt entry, the sequences of proteins in these tests, tags left out.
UniProt O00571: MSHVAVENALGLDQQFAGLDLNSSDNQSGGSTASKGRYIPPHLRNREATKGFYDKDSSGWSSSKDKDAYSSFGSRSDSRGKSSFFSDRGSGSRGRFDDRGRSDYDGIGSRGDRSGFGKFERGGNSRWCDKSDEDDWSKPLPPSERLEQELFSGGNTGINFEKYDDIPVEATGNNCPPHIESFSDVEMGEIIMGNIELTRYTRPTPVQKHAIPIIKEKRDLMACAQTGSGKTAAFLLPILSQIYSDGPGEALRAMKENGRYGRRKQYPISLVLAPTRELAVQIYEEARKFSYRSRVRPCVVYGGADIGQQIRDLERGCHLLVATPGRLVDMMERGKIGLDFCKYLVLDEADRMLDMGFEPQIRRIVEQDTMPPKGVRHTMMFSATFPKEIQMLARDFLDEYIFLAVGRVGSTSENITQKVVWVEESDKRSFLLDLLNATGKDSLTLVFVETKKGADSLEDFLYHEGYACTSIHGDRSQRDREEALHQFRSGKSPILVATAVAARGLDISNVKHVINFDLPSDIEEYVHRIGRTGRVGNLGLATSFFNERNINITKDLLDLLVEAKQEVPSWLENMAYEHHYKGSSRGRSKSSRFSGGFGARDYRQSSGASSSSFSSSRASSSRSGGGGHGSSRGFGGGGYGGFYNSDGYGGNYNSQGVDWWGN
UniProt Q9NRC8: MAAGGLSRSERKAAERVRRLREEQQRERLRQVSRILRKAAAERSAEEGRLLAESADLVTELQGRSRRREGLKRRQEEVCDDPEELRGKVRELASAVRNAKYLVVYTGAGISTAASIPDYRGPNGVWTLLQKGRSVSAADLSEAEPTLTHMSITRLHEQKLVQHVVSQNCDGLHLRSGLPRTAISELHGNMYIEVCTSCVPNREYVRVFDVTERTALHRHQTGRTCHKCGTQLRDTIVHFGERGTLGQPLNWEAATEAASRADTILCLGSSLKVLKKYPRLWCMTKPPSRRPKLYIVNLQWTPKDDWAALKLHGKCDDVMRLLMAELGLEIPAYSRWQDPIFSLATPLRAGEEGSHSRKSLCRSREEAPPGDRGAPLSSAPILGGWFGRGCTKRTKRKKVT

Experimental findings from publication doi:10.1101/2023.03.13.531998 are described below.

Results are given in words; binding and its absence hold for the method and conditions named. In cells and extracts the contact can be indirect. Some entries that bind do so weakly or less than the wild type.

Turning to “FLAG-SIRT7 (from UniProt Q9NRC8 1-400) (enzyme)”, the binding entry is given as “binds”.
